Assay results: patent US6849603B1 (NSS T Neurosurvival Technologies Ltd., priority 1998, dated 2005)

Assay: general procedure: Fmoc solid-phase peptide synthesis; preloaded Wang resin (Wang resin or 2-chlorotrityl resin); HBTU/HOBt, DIEA
Settings: whole synthesis, non calibrated RP-HPLC, scale of the general procedure 330 μmol

Sequence: FELRYRRAF
- final HPLC purity: 86.1%

Ends that are not written are not given here.
